Data taken from US20190376122.

The chains behind the UniProt entries cited, without tags or fusion partners. Residues count along the entry.
UniProt P0AGE0, 2-178: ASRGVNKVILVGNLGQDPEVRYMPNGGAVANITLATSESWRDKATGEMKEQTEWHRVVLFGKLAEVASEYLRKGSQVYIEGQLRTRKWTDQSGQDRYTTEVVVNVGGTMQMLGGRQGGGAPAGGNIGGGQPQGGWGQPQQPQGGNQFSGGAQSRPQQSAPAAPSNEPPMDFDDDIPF

Biological target: E. coli SSB (Escherichia coli) (UniProt P0AGE0)
Test: binding assay
Conditions: salt mixture 350 mM NaCl, 600 mM KCl, 150 mM Mg(OAc)2; no measurable binding; 25 C; purified recombinant protein; label: dT-DABCYL and dT-FAM internal; single-stranded DNA

GGCCCGTAGGAGGAAAGGACATCTTCTAGCATACGGGCCGTCAAGTTCATGGCCAGTCAAGTCGTCAGAAATTTCGCACCAC [MB molecular beacon]
binding result: no binding

No signal at the amounts used counts as a negative.
